Results are given in words; binding and its absence hold for the method and conditions named. In cells and extracts the contact can be indirect. Some results given as binding are weak or reduced against the parent protein; the word gives no strength.
T1: Smc4 (UniProt Q12267)
T1 sequence: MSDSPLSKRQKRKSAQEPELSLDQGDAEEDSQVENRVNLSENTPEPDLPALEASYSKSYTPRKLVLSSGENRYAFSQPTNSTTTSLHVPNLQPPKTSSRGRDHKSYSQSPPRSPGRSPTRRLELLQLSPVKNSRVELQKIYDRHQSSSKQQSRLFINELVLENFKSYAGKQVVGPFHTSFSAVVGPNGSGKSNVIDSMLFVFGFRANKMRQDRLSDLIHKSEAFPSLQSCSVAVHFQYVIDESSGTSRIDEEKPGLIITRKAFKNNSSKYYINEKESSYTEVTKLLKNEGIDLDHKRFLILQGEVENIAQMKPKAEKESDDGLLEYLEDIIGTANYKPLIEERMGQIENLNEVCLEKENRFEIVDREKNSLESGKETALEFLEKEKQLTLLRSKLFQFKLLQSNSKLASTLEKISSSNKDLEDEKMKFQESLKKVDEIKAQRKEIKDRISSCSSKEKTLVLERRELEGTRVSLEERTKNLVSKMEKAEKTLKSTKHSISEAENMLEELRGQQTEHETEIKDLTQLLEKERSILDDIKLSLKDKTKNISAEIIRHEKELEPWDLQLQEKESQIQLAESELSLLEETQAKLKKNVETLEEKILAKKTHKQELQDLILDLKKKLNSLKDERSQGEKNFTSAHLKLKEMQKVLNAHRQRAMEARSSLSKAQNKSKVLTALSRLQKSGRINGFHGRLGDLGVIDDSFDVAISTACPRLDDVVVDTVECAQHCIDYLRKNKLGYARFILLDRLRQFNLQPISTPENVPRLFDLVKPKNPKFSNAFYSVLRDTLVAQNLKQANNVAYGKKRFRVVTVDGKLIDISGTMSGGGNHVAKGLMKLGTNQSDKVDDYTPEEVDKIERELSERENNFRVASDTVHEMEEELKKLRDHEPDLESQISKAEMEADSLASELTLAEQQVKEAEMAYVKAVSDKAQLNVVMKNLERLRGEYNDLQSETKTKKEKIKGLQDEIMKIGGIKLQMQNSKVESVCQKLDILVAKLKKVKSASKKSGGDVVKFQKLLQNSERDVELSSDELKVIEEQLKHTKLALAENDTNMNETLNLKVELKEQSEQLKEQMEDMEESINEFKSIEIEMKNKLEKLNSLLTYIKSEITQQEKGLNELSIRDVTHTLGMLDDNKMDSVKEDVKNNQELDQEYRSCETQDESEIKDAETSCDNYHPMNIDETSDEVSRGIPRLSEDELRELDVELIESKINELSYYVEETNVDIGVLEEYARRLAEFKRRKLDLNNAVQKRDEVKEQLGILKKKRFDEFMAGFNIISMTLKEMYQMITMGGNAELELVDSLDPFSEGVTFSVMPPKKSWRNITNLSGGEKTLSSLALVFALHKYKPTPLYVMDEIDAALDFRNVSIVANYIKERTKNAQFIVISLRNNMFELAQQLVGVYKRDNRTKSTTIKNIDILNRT

By UniProt entry, the sequences of proteins in these tests, tags left out. Residues count along the entry.
UniProt P11021, residues 19-654: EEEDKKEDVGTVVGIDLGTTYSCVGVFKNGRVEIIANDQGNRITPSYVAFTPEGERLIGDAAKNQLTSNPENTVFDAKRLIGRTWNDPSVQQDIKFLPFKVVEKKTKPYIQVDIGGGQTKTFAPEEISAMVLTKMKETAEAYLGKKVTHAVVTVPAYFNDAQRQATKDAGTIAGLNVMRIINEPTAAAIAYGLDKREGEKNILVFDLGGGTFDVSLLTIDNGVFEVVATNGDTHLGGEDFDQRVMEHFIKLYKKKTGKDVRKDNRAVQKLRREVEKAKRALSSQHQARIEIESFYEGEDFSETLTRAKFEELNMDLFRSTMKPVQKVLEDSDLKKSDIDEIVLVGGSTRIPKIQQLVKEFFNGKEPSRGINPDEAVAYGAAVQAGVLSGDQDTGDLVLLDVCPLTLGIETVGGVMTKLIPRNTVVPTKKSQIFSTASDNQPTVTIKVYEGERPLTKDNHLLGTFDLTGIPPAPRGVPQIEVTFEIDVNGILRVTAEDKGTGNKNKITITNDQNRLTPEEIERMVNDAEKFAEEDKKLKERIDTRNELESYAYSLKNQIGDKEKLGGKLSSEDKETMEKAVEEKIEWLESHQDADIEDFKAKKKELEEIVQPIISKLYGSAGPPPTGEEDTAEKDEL

B1: MDH2 (protein, UniProt P40926 25-338)
chain: AKVAVLGASGGIGQPLSLLLKNSPLVSRLTLYDIAHTPGVAADLSHIETKAAVKGYLGPEQLPDCLKGCDVVVIPAGVPRKPGMTRDDLFNTNATIVATLTAACAQHCPEAMICVIANPVNSTIPITAEVFKKHGVYNPNKIFGVTTLDIVRANTFVAELKGLDPARVNVPVIGGHAGKTIIPLISQCTPKVDFPQDQLTALTGRIQEAGTEVVKAKAGAGSATLSMAYAGARFVFSLVDAMNGKEGVVECSFVKSQETECTYFSTPLLLGKKGIEKNLGIGKVSSFEEKMISDAIPELKASIKKGEDFVKTLK
B2: CAMSAP2 (protein, UniProt Q08AD1 1-1489)
chain: MGDAADPREMRKTFIVPAIKPFDHYDFSRAKIACNLAWLVAKAFGTENVPEELQEPFYTDQYDQEHIKPPVVNLLLSAELYCRAGSLILKSDAAKPLLGHDAVIQALAQKGLYVTDQEKLVTERDLHKKPIQMSAHLAMIDTLMMAYTVEMVSIEKVIACAQQYSAFFQATDLPYDIEDAVMYWINKVNEHLKDIMEQEQKLKEHHTVEAPGGQKSPSKWFWKLVPARYRKEQTLLKQLPCIPLVENLLKDGTDGCALAALIHFYCPDVVRLEDICLKETMSLADSLYNLQLIQEFCQEYLNQCCHFTLEDMLYAASSIKSNYLVFMAELFWWFEVVKPSFVQPRVVRPQGAEPVKDMPSIPVLNAAKRNVLDSSSDFPSSGEGATFTQSHHHLPSRYSRPQAHSSASGGIRRSSSMSYVDGFIGTWPKEKRSSVHGVSFDISFDKEDSVQRSTPNRGITRSISNEGLTLNNSHVSKHIRKNLSFKPINGEEEAESIEEELNIDSHSDLKSCVPLNTNELNSNENIHYKLPNGALQNRILLDEFGNQIETPSIEEALQIIHDTEKSPHTPQPDQIANGFFLHSQEMSILNSNIKLNQSSPDNVTDTKGALSPITDNTEVDTGIHVPSEDIPETMDEDSSLRDYTVSLDSDMDDASKFLQDYDIRTGNTREALSPCPSTVSTKSQPGSSASSSSGVKMTSFAEQKFRKLNHTDGKSSGSSSQKTTPEGSELNIPHVVAWAQIPEETGLPQGRDTTQLLASEMVHLRMKLEEKRRAIEAQKKKMEAAFTKQRQKMGRTAFLTVVKKKGDGISPLREEAAGAEDEKVYTDRAKEKESQKTDGQRSKSLADIKESMENPQAKWLKSPTTPIDPEKQWNLASPSEETLNEGEILEYTKSIEKLNSSLHFLQQEMQRLSLQQEMLMQMREQQSWVISPPQPSPQKQIRDFKPSKQAGLSSAIAPFSSDSPRPTHPSPQSSNRKSASFSVKSQRTPRPNELKITPLNRTLTPPRSVDSLPRLRRFSPSQVPIQTRSFVCFGDDGEPQLKESKPKEEVKKEELESKGTLEQRGHNPEEKEIKPFESTVSEVLSLPVTETVCLTPNEDQLNQPTEPPPKPVFPPTAPKNVNLIEVSLSDLKPPEKADVPVEKYDGESDKEQFDDDQKVCCGFFFKDDQKAENDMAMKRAALLEKRLRREKETQLRKQQLEAEMEHKKEETRRKTEEERQKKEDERARREFIRQEYMRRKQLKLMEDMDTVIKPRPQVVKQKKQRPKSIHRDHIESPKTPIKGPPVSSLSLASLNTGDNESVHSGKRTPRSESVEGFLSPSRCGSRNGEKDWENASTTSSVASGTEYTGPKLYKEPSAKSNKHIIQNALAHCCLAGKVNEGQKKKILEEMEKSDANNFLILFRDSGCQFRSLYTYCPETEEINKLTGIGPKSITKKMIEGLYKYNSDRKQFSHIPAKTLSASVDAITIHSHLWQTKRPVTPKKLLPTKA
B3: SMG5 (protein, UniProt Q9UPR3 1-1016)
chain: MSQGPPTGESSEPEAKVLHTKRLYRAVVEAVHRLDLILCNKTAYQEVFKPENISLRNKLRELCVKLMFLHPVDYGRKAEELLWRKVYYEVIQLIKTNKKHIHSRSTLECAYRTHLVAGIGFYQHLLLYIQSHYQLELQCCIDWTHVTDPLIGCKKPVSASGKEMDWAQMACHRCLVYLGDLSRYQNELAGVDTELLAERFYYQALSVAPQIGMPFNQLGTLAGSKYYNVEAMYCYLRCIQSEVSFEGAYGNLKRLYDKAAKMYHQLKKCETRKLSPGKKRCKDIKRLLVNFMYLQSLLQPKSSSVDSELTSLCQSVLEDFNLCLFYLPSSPNLSLASEDEEEYESGYAFLPDLLIFQMVIICLMCVHSLERAGSKQYSAAIAFTLALFSHLVNHVNIRLQAELEEGENPVPAFQSDGTDEPESKEPVEKEEEPDPEPPPVTPQVGEGRKSRKFSRLSCLRRRRHPPKVGDDSDLSEGFESDSSHDSARASEGSDSGSDKSLEGGGTAFDAETDSEMNSQESRSDLEDMEEEEGTRSPTLEPPRGRSEAPDSLNGPLGPSEASIASNLQAMSTQMFQTKRCFRLAPTFSNLLLQPTTNPHTSASHRPCVNGDVDKPSEPASEEGSESEGSESSGRSCRNERSIQEKLQVLMAEGLLPAVKVFLDWLRTNPDLIIVCAQSSQSLWNRLSVLLNLLPAAGELQESGLALCPEVQDLLEGCELPDLPSSLLLPEDMALRNLPPLRAAHRRFNFDTDRPLLSTLEESVVRICCIRSFGHFIARLQGSILQFNPEVGIFVSIAQSEQESLLQQAQAQFRMAQEEARRNRLMRDMAQLRLQLEVSQLEGSLQQPKAQSAMSPYLVPDTQALCHHLPVIRQLATSGRFIVIIPRTVIDGLDLLKKEHPGARDGIRYLEAEFKKGNRYIRCQKEVGKSFERHKLKRQDADAWTLYKILDSCKQLTLAQGAGEEDPSGMVTIITGLPLDNPSVLSGPMQAALQAAAHASVDIKNVLDFYKQWKEIG
B4: FAM92A1 (protein, UniProt A1XBS5 48-289)
chain: ADLLVNEINAYAATETPHLKLGLMNFADEFAKLQDYRQAEVERLEAKVVEPLKTYGTIVKMKRDDLKATLTARNREAKQLTQLERTRQRNPSDRHVISQAETELQRAAMDASRTSRHLEETINNFERQKMKDIKTIFSEFITIEMLFHGKALEVYTAAYQNIQNIDEDEDLEVFRNSLYAPDYSSRLDIVRANSKSPLQRSLSAKCVSGTGQVSTCRLRKDQQAEDDEDDELDVTEEENFLK
B5: MAGEB18 (protein, UniProt Q96M61 1-343)
chain: MPRGQKSKLRAREKRHQARCENQDLGATQATVAEGESPSPAYLLFGDRPQNLPAAETPSIPEALQGAPSTTNAIAPVSCSSNEGASSQDEKSLGSSREAEGWKEDPLNKKVVSLVHFLLQKYETKEPITKGDMIKFVIRKDKCHFNEILKRASEHMELALGVDLKEVDPIRHYYAFFSKLDLTYDETTSDEEKIPKTGLLMIALGVIFLNGNRAPEEAVWEIMNMMGVYADRKHFLYGDPRKVMTKDLVQLKYLEYQQVPNSDPPRYEFLWGPRAHAETSKMKVLEFVAKIHDTVPSAFPSCYEEALRDEEQRTQARAAARAHTAAMANARSRTTSSSFSHAK
B6: Smc2 (protein, UniProt P38989 1-1170)
chain: MKVEELIIDGFKSYATRTVITDWDPQFNAITGLNGSGKSNILDAICFVLGIASMSTVRASSLQDLIYKRGQAGVTKASVTIVFDNTDKSNSPIGFTNSPQISVTRQVVLGGTSKYLINGHRAPQQSVLQLFQSVQLNINNPNFLIMQGKITKVLNMKPSEILSLIEEAAGTKMFEDRREKAERTMSKKETKLQENRTLLTEEIEPKLEKLRNEKRMFLEFQSTQTDLEKTERIVVSYEYYNIKHKHTSIRETLENGETRMKMLNEFVKKTSEEIDSLNEDVEEIKLQKEKELHKEGTISKLENKENGLLNEISRLKTSLSIKVENLNDTTEKSKALESEIASSSAKLIEKKSAYANTEKDYKMVQEQLSKQRDLYKRKEELVSTLTTGISSTGAADGGYNAQLAKAKTELNEVSLAIKKSSMKMELLKKELLTIEPKLKEATKDNELNVKHVKQCQETCDKLRARLVEYGFDPSRIKDLKQREDKLKSHYYQTCKNSEYLKRRVTNLEFNYTKPYPNFEASFVHGVVGQLFQIDNDNIRYATALQTCAGGRLFNVVVQDSQTATQLLERGRLRKRVTIIPLDKIYTRPISSQVLDLAKKIAPGKVELAINLIRFDESITKAMEFIFGNSLICEDPETAKKITFHPKIRARSITLQGDVYDPEGTLSGGSRNTSESLLVDIQKYNQIQKQIETIQADLNHVTEELQTQYATSQKTKTIQSDLNLSLHKLDLAKRNLDANPSSQIIARNEEILRDIGECENEIKTKQMSLKKCQEEVSTIEKDMKEYDSDKGSKLNELKKELKLLAKELEEQESESERKYDLFQNLELETEQLSSELDSNKTLLHNHLKSIESLKLENSDLEGKIRGVEDDLVTVQTELNEEKKRLMDIDDELNELETLIKKKQDEKKSSELELQKLVHDLNKYKSNTNNMEKIIEDLRQKHEFLEDFDLVRNIVKQNEGIDLDTYRERSKQLNEKFQELRKKVNPNIMNMIENVEKKEAALKTMIKTIEKDKMKIQETISKLNEYKRETLVKTWEKVTLDFGNIFADLLPNSFAKLVPCEGKDVTQGLEVKVKLGNIWKESLIELSGGQRSLIALSLIMALLQFRPAPMYILDEVDAALDLSHTQNIGHLIKTRFKGSQFIVVSLKEGMFANANRVFRTRFQDGTSVVSIM

target: HSPA5 encoded protein P11021 (human (endogenous in HeLa)) (UniProt P11021); experiment: cross-linking

Binder	binding
B1	binds
B2	binds
B3	binds
B4	binds
B5	binds

target: T1, Smc4; experiment: cross-linking

Binder	binding
B6	binds

From article doi:10.1101/2021.12.31.474672
